Source: the supplement of paper PMC12819154, “High-throughput peptide-centric local stability assay extends protein–ligand identification to membrane proteins, tissues and bacteria” (Nature Structural & Molecular Biology, 2025)
This is one part of the list. Most entries show no effect beyond the scatter of the controls.

Sequences of proteins named here, by UniProt entry; tags and fusion partners are left off. A change or cut given only in a name is not applied to a line headed by its entry.
UniProt P0ACN7: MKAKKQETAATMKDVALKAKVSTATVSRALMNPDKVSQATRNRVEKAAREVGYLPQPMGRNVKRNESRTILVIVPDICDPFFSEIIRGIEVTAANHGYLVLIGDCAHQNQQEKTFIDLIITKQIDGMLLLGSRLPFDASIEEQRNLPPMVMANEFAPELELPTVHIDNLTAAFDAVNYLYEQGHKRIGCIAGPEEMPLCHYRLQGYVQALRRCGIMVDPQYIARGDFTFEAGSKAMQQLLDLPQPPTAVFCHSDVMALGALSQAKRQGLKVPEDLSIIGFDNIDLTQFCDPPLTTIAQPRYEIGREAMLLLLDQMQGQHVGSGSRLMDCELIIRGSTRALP
UniProt P0AAV6: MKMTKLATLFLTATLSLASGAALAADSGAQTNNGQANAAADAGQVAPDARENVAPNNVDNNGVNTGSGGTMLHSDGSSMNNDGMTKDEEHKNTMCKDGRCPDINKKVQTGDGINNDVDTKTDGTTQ
UniProt P0AC84: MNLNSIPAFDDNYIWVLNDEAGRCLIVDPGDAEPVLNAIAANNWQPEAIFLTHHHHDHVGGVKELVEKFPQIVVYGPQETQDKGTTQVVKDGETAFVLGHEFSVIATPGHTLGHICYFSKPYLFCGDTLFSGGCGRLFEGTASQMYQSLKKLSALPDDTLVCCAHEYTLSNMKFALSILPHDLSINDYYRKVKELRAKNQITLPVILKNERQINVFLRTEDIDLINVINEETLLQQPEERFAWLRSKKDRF
UniProt P0ABU5: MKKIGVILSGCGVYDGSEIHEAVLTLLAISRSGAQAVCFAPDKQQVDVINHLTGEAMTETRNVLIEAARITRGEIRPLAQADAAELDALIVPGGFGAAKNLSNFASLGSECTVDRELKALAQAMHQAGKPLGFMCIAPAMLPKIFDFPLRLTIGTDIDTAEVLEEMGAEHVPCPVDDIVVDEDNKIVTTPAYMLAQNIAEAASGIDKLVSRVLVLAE
UniProt P0AC51: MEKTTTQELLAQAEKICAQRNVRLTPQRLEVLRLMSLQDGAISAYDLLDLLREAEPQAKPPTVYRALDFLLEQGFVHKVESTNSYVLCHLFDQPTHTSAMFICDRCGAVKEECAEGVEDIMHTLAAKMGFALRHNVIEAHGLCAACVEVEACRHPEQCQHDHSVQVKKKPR
UniProt P0ACU5: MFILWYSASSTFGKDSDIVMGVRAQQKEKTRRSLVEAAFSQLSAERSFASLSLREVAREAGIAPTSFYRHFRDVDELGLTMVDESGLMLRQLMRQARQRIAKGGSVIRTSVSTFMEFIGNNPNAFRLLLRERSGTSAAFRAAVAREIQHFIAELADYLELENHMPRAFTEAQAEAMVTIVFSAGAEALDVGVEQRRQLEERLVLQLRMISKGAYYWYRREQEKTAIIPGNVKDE
UniProt P0AC00: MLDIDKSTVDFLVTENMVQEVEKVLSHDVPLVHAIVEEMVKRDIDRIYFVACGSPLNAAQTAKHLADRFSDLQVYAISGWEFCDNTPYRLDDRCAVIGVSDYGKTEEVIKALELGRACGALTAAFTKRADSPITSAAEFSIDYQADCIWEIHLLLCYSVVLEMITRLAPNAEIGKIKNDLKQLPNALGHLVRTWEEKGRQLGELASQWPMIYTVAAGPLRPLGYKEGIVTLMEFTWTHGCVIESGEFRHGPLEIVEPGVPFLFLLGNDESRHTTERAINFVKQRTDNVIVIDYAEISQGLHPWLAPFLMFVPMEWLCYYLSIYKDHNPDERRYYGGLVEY
UniProt P0AB77: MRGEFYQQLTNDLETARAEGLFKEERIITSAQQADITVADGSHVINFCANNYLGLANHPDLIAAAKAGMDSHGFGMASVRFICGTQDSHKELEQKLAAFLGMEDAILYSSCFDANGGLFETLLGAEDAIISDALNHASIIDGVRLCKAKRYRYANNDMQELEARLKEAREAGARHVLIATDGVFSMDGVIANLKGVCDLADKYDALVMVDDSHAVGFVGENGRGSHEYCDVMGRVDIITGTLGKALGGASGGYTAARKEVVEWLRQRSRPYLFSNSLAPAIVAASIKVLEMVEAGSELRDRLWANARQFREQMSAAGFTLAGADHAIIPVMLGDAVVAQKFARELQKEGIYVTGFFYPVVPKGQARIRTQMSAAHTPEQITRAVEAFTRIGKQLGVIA
UniProt P0ACV4: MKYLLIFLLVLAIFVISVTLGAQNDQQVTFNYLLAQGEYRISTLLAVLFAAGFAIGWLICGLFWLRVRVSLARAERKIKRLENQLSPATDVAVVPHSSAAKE
UniProt P0ABM9: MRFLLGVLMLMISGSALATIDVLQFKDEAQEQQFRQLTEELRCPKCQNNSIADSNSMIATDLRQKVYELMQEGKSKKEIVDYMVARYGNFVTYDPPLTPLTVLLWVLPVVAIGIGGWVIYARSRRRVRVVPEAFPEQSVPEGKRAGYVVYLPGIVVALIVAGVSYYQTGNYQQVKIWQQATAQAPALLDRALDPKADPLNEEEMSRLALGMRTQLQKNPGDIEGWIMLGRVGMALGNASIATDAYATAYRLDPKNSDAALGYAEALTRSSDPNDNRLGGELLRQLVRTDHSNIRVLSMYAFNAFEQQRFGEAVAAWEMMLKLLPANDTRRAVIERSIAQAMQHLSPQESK
UniProt P0AA37: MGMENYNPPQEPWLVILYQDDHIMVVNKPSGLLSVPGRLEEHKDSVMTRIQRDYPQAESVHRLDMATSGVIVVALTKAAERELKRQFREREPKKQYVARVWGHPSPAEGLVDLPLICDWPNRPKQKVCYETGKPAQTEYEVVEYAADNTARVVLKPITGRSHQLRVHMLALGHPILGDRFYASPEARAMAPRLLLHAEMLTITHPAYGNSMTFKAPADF
UniProt P0ACK8: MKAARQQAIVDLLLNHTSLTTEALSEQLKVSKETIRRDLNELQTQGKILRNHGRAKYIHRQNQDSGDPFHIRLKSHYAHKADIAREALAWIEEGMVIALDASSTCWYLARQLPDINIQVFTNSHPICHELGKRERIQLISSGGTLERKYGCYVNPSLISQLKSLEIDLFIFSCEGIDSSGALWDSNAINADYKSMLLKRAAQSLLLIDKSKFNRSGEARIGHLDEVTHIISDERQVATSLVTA
UniProt P0ACV2: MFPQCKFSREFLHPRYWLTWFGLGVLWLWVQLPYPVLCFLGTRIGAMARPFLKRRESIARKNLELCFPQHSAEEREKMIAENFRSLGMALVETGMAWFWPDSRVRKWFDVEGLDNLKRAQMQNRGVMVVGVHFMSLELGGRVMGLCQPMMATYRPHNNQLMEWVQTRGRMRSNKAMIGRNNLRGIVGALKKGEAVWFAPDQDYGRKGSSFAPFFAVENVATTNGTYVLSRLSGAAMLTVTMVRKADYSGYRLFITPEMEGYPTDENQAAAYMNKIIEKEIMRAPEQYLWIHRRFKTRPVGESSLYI
UniProt P0A9V8: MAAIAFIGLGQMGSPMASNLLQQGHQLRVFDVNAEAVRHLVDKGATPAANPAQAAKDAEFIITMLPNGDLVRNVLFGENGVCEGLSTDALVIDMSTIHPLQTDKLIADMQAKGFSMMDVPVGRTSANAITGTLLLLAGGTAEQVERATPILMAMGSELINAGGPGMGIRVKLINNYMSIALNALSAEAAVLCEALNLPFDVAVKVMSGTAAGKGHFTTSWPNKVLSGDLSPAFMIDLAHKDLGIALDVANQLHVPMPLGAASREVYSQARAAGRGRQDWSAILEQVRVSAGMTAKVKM
UniProt P0ACM2: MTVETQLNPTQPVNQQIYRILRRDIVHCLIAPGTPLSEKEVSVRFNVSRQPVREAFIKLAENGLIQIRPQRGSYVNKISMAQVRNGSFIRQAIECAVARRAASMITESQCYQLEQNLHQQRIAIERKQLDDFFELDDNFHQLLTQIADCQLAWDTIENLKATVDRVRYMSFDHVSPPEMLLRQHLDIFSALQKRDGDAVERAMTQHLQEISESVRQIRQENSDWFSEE
UniProt P0AB96: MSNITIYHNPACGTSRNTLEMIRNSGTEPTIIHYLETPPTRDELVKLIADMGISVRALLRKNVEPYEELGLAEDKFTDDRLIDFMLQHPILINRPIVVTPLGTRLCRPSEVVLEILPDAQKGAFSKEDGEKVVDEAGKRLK
UniProt P0AB12: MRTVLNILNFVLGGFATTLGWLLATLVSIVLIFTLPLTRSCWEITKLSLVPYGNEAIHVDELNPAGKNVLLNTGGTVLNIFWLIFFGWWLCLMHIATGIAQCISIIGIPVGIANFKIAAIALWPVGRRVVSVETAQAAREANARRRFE
UniProt P0A9W9: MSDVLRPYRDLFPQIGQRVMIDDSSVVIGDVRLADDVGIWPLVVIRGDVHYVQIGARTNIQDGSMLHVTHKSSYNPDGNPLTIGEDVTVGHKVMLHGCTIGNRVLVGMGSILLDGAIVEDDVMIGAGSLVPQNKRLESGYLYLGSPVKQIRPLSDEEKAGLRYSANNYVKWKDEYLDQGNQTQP
UniProt P0AA80: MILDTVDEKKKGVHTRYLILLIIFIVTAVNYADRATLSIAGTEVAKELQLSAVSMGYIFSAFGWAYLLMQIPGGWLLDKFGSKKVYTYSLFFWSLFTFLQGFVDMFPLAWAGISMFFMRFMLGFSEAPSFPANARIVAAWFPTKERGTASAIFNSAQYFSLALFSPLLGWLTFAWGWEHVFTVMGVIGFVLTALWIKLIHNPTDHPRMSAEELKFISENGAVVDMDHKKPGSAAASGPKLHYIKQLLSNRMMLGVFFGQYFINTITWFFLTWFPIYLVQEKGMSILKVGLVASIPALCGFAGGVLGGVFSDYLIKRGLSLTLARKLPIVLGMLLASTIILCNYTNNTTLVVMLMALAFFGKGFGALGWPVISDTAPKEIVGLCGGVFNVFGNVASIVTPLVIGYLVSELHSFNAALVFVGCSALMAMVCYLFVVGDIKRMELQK
UniProt P0ABR5: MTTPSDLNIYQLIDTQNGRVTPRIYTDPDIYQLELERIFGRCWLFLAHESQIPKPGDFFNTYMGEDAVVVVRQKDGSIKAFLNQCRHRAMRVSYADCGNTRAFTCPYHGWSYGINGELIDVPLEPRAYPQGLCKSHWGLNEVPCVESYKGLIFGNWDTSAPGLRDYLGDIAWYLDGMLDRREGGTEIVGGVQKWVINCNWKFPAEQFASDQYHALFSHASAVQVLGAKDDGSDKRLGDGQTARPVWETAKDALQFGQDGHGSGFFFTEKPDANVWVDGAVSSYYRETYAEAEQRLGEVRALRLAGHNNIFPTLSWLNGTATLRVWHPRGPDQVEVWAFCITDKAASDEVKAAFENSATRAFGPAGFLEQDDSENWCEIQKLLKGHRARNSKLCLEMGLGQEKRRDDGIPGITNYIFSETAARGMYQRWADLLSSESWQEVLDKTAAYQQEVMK
UniProt P0ABZ4: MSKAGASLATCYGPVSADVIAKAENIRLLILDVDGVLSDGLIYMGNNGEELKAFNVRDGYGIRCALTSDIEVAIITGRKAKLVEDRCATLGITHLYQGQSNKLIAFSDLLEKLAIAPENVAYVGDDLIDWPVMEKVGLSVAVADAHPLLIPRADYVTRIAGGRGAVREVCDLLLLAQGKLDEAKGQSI
UniProt P0AAJ3: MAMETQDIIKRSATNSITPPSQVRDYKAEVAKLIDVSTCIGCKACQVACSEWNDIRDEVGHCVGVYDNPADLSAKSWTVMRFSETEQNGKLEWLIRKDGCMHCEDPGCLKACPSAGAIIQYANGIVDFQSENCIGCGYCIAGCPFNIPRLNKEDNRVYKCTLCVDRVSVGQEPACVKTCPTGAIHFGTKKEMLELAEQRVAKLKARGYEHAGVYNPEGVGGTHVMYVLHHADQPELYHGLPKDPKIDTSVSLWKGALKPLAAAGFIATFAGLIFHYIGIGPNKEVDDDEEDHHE
UniProt P0AA41: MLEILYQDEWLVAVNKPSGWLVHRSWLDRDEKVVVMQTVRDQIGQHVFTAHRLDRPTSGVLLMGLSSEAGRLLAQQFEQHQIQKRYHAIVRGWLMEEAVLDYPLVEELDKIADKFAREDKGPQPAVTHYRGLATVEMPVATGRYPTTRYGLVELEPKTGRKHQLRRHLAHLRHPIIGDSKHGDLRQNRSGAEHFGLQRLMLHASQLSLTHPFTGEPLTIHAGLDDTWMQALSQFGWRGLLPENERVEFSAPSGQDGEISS
UniProt P0AAK1: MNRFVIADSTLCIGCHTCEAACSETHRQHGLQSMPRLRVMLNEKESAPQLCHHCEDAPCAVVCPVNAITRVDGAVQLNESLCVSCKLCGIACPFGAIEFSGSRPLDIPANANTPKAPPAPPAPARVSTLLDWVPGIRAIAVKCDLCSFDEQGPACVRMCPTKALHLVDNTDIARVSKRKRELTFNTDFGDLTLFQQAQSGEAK

Each target was assayed with CC1(C)S[C@@H]2[C@H](NC(=O)[C@H](N)c3ccccc3)C(=O)N2[C@H]1C(=O)O [ampicillin] (assay: log2 fold change of tryptic peptide abundance, ligand vs vehicle (limited proteolysis) (log2 ratio); higher = more trypsin-susceptible (destabilized)). Settings: ligand concentration: 10 uM; sample: E. coli crude lysate.
For “UniProt P0ACN7 (peptide sequence: AAREVGYLPQPMGR, peptide start residue: 47)”, the log2 fold change was -0.403.
Target “UniProt P0AAV6 (peptide sequence: DGRCPDINK, peptide start residue: 97)” has a log2 fold change of 0.589.
With “UniProt P0AC84 (peptide sequence: AKNQITLPVILK, peptide start residue: 197)” the log2 fold change was 0.206.
In the case of “UniProt P0AAR3 (peptide sequence: STGYLVGGISPLGQKKR, peptide start residue: 95)”, the log2 fold change is reported as -0.619.
“UniProt P0ABU5 (peptide sequence: IFDFPLR, peptide start residue: 144)” was tested, and the log2 fold change was -0.188.
In the case of “UniProt P0AC51 (peptide sequence: EAEPQAKPPTVYR, peptide start residue: 53)”, the log2 fold change is reported as 0.0751.
With “UniProt P0ACU5 (peptide sequence: SFASLSLR, peptide start residue: 47)” the log2 fold change was -0.285.
Target “UniProt P0AC00 (peptide sequence: ACGALTAAFTK, peptide start residue: 117)” has a log2 fold change of -0.192.
“UniProt P0AB77 (peptide sequence: ALGGASGGYTAAR, peptide start residue: 245)” was tested, and the log2 fold change was -0.235.
“UniProt P0ACV4 (peptide sequence: RLENQLSPATDVAVVPHSSAAKE, peptide start residue: 80)” showed a log2 fold change of -0.275.
“UniProt P0ABM9 (peptide sequence: EIVDYMVAR, peptide start residue: 78)” was tested, and the log2 fold change was 0.118.
With “UniProt P0AA37 (peptide sequence: LLLHAEMLTITHPAYGNSMTFK, peptide start residue: 193)” the log2 fold change was 0.544.
“UniProt P0ACK8 (peptide sequence: QNQDSGDPFHIR, peptide start residue: 61)” was tested, and the log2 fold change was -0.147.
Target “UniProt P0ACD8 (peptide sequence: AHEAQWAAGK, peptide start residue: 456)” has a log2 fold change of 0.308.
“UniProt P0ACV2 (peptide sequence: IGAMARPFLK, peptide start residue: 44)” gave a log2 fold change of -0.148.
“UniProt P0A9V8 (peptide sequence: GRQDWSAILEQVR, peptide start residue: 275)” showed a log2 fold change of 0.332.
“UniProt P0ACM2 (peptide sequence: LAENGLIQIR, peptide start residue: 59)” was tested, and the log2 fold change was 0.397.
“UniProt P0AB96 (peptide sequence: GAFSKEDGEK, peptide start residue: 122)” gave a log2 fold change of 0.353.
“UniProt P0AB12 (peptide sequence: VVSVETAQAAR, peptide start residue: 129)” gave a log2 fold change of -0.0104.
Work on “UniProt P0A9W9 (peptide sequence: TNIQDGSMLHVTHK, peptide start residue: 58)” yielded a log2 fold change of 0.229.
With “UniProt P0AA80 (peptide sequence: IVAAWFPTK, peptide start residue: 136)” the log2 fold change was -0.26.
“UniProt P0ABR5 (peptide sequence: VSYADCGNTR, peptide start residue: 92)” showed a log2 fold change of -0.522.
In the case of “UniProt P0ABZ4 (peptide sequence: EVCDLLLLAQGK, peptide start residue: 168)”, the log2 fold change is reported as 0.392.
In the case of “UniProt P0AAJ3 (peptide sequence: CTLCVDR, peptide start residue: 160)”, the log2 fold change is reported as -0.525.
Target “UniProt P0AA41 (peptide sequence: LDRPTSGVLLMGLSSEAGR, peptide start residue: 53)” has a log2 fold change of 0.584.
“UniProt P0AAK1 (peptide sequence: PLDIPANANTPK, peptide start residue: 104)” gave a log2 fold change of -0.204.
